Data source: PubChem BioAssay AID1259283 (Sanger Institute, 2017)

- Screen: 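Kinases needed for HT115 growth and partners for drug synergy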 (primary screen)
- Cell system: HT115 colorectal cancer cells
- Reagents: siRNA pool against human genes
- Treatment: anchor drug given one day after siRNA: BYL719 at 1 µM, cetuximab at 5 µg/ml, trametinib at 10 nM, or DMSO vehicle alone
- Read-out: 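Viability normalised to non-targeting pool #2 wells and averaged over replicates, robust z-score against control wells, and a synergy score for each of three drugs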
- Scale: robust z-score, knock-down alone: higher = more viable cells after knock-down; viability, DMSO vs non-targeting control: higher = more viable cells; synergy score with BYL719 and synergy score with cetuximab and synergy score with trametinib: higher = stronger synergy with drug (synthetic lethal)
- Call rule: 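Essential gene: robust z-score less than -3 with no drug added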
- Meaning of the calls: active = essential (z below -3, no drug); inactive = no change without drug
This is a random part of 794 reagents. 14 of them (1.8%) count as active. 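Calls reflect only viability loss without drug; drug synergy does not enter the call.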 A number with no mark means an inactive call. Viability is capped at 1. Not given: the amount of reagent, the time to read-out.

gene knocked down	PubChem SID	robust z-score, knock-down alone	viability, DMSO vs non-targeting control (fraction of control)	synergy score with BYL719	synergy score with cetuximab	synergy score with trametinib
TEC (tec protein tyrosine kinase)	SID152148252	-0.701	0.862	-0.073	0.0171	0.0914
MPP2 (MAGUK p55 scaffold protein 2)	SID152153278	0.694	0.991	0.141	0.205	0.206
TYK2 (tyrosine kinase 2)	SID135620633	0.0147	0.928	-0.0257	0.00212	0.0827
CAMK1 (calcium/calmodulin dependent protein kinase I)	SID56478929	0.789	1	0.0523	0.172	0.0612
PTEN (phosphatase and tensin homolog)	SID152153158	-0.52	0.879	-0.0471	0.0186	-0.151
MAP3K14 (mitogen-activated protein kinase kinase kinase 14)	SID135620705	0.522	0.975	0.16	0.2	0.105
KSR1 (kinase suppressor of ras 1)	SID152156641	-3.99 (active)	0.558	-0.0383	0.0834	0.03
PRKCH (protein kinase C eta)	SID56478829	0.0255	0.929	-0.0914	0.0793	0.078
MAP3K8 (mitogen-activated protein kinase kinase kinase 8)	SID56478664	0.32	0.957	0.107	0.0908	-0.00514
EPHB1 (EPH receptor B1)	SID152152600	0.214	0.947	0.00991	0.0317	0.0848
PANK1 (pantothenate kinase 1)	SID56478765	0.789	1	-0.0176	0.0437	-0.0427
NEK4 (NIMA related kinase 4)	SID152155431	0.789	1	-0.0146	0.077	0.0587
ROR1 (ROR family WNT receptor 1)	SID135620631	0.735	0.995	0.0333	0.171	0.182
GNAS (GNAS complex locus)	SID152155794	0.22	0.947	0.2	0.228	0.119
WNK2 (WNK lysine deficient protein kinase 2)	SID56479037	0.693	0.991	0.00238	-0.0236	-0.123
FGFR4 (fibroblast growth factor receptor 4)	SID56478514	0.789	1	-0.0224	0.0866	0.0798
SLK (STE20 like kinase)	SID56478731	0.789	1	0.0525	-0.0435	0.108
PFKL (phosphofructokinase, liver type)	SID56479167	0.789	1	-0.00436	0.076	-0.0285
CDK7 (cyclin dependent kinase 7)	SID152150057	0.789	1	0.0299	0.0871	0.0134
RUNX1 (RUNX family transcription factor 1)	SID135620759	0.712	0.993	0.122	0.156	0.167
HUNK (hormonally up-regulated Neu-associated kinase)	SID56478785	-0.962	0.838	0.0945	0.0555	0.33
MAPKAPK2 (MAPK activated protein kinase 2)	SID56478668	0.789	1	0.045	0.0932	0.105
KRAS (KRas proto-oncogene, GTPase)	SID134310727	-0.342	0.895	-0.0438	0.0531	0.241
CHKB (choline kinase beta)	SID56479083	0.651	0.987	-0.0348	0.0837	0.0868

Copied from the list:
RUNX1 (RUNX family transcription factor 1) [SID135620759], synergy score with cetuximab = 0.156
EPHB1 (EPH receptor B1) [SID152152600], synergy score with trametinib → 0.0848
Entry of NEK4 (NIMA related kinase 4) [SID152155431] under “synergy score with trametinib”: 0.0587
Under “synergy score with BYL719”, KSR1 (kinase suppressor of ras 1) [SID152156641] shows -0.0383 (active)
Value for PRKCH (protein kinase C eta) [SID56478829] under “synergy score with BYL719”: -0.0914
Result for TEC (tec protein tyrosine kinase) [SID152148252] in “synergy score with BYL719”: -0.073

More records follow:
gene knocked down	PubChem SID	robust z-score, knock-down alone	viability, DMSO vs non-targeting control (fraction of control)	synergy score with BYL719	synergy score with cetuximab	synergy score with trametinib
TGFBR3 (transforming growth factor beta receptor 3)	SID152150530	0.789	1	-0.0224	-0.0435	0.033
MAP3K11 (mitogen-activated protein kinase kinase kinase 11)	SID152156459	0.789	1	0.0345	-0.0097	-0.111
OXSR1 (oxidative stress responsive kinase 1)	SID152151868	0.612	0.984	0.0249	0.127	0.115
PKIB (cAMP-dependent protein kinase inhibitor beta)	SID56479212	0.789	1	0.0141	0.0751	-0.0222
MAP3K13 (mitogen-activated protein kinase kinase kinase 13)	SID56478694	-0.0783	0.92	-0.101	0.00955	-0.162
NEK11 (NIMA related kinase 11)	SID152147168	-2.76	0.672	0.00644	0.0105	-0.0619
SCYL1 (SCY1 like pseudokinase 1)	SID152146872	0.789	1	-0.0224	-0.0435	-0.101
MAPK11 (mitogen-activated protein kinase 11)	SID56478748	-0.273	0.902	-0.118	0.0133	0.097
ELP1 (elongator acetyltransferase complex subunit 1)	SID56479224	0.375	0.962	0.0495	0.035	0.0294
LMTK2 (lemur tail kinase 2)	SID152147902	0.121	0.938	-0.0107	0.0456	0.0288
NLK (nemo like kinase)	SID56478865	-1.93	0.749	0.0341	0.0752	0.12
KHK (ketohexokinase)	SID135621242	0.789	1	0.142	0.133	0.149
FXR1 (FMR1 autosomal homolog 1)	SID152147249	0.789	1	0.0409	0.0571	0.031
AKT1 (AKT serine/threonine kinase 1)	SID135620599	-1.16	0.82	-0.0642	-0.0349	0.0982
PKN1 (protein kinase N1)	SID56478783	0.789	1	0.0146	-0.023	0.00141
GRK5 (G protein-coupled receptor kinase 5)	SID152146923	0.789	1	-0.00205	0.0883	0.17
PRKCB (protein kinase C beta)	SID56478724	0.288	0.954	0.0505	0.116	0.109
MARK1 (microtubule affinity regulating kinase 1)	SID152146970	0.789	1	0.0177	0.102	-0.00359
PIM1 (Pim-1 proto-oncogene, serine/threonine kinase)	SID56478736	0.58	0.981	0.0134	-0.00283	0.283
MAGI3	SID152154544	0.789	1	-0.0224	-0.0117	0.017
DCLK2 (doublecortin like kinase 2)	SID152154613	0.789	1	0.0806	0.141	0.137
NEK7 (NIMA related kinase 7)	SID56478729	0.789	1	-0.0224	-0.0261	0.0613
MAP3K10 (mitogen-activated protein kinase kinase kinase 10)	SID56478692	0.689	0.991	-0.0314	-0.0445	-0.0182
NEK5 (NIMA related kinase 5)	SID135624240	0.789	1	0.0091	-0.013	-0.0361
CIB2 (calcium and integrin binding family member 2)	SID134316517	0.789	1	-0.0224	0.0667	0.131
MOK (MOK protein kinase)	SID56478889	-1.57	0.782	-0.0429	0.0235	0.144
CERK (ceramide kinase)	SID152152071	0.789	1	-0.0224	0.0464	0.0393
CKS2 (CDC28 protein kinase regulatory subunit 2)	SID56479182	0.278	0.953	-0.0113	0.0174	0.0796
MAP3K19 (mitogen-activated protein kinase kinase kinase 19)	SID135620896	-0.767	0.856	-0.0237	0.0116	-0.035
ROCK2 (Rho associated coiled-coil containing protein kinase 2)	SID135620850	-0.769	0.856	-0.0366	0.0512	0.177
STK40 (serine/threonine kinase 40)	SID56479025	-0.0531	0.922	0.0587	-0.0103	-0.0882
TEK (TEK receptor tyrosine kinase)	SID152152932	0.75	0.996	-0.0259	0.0269	0.0879
DAPK3 (death associated protein kinase 3)	SID56478935	-0.497	0.881	-0.0505	0.0128	0.0226
MAP4K4 (mitogen-activated protein kinase kinase kinase kinase 4)	SID56478747	-0.0596	0.922	0.145	0.04	0.125
MAP4K2 (mitogen-activated protein kinase kinase kinase kinase 2)	SID56478700	-0.375	0.892	0.0947	-0.0168	0.0436
MVK (mevalonate kinase)	SID56479115	0.789	1	0.117	0.0909	0.197
ACO1 (aconitase 1)	SID134314687	0.117	0.938	0.111	0.133	0.149
TP53RK (TP53 regulating kinase)	SID135620611	0.717	0.993	0.0608	0.0874	0.117
FGFR3 (fibroblast growth factor receptor 3)	SID56478513	0.789	1	0.125	0.172	0.221
